Measured values taken from article PMC9561274.
Results are given in words; binding and its absence hold for the method and conditions named. For some of these results: In cells and extracts the contact can be indirect. Some entries that bind do so weakly or less than the wild type. For some of these results: Where a sequence is shown, tags or fusion partners need not be part of it.

B1: SIAH1 (protein, UniProt Q8IUQ4 1-282)
chain: MSRQTATALPTGTSKCPPSQRVPALTGTTASNNDLASLFECPVCFDYVLPPILQCQSGHLVCSNCRPKLTCCPTCRGPLGSIRNLAMEKVANSVLFPCKYASSGCEITLPHTEKADHEELCEFRPYSCPCPGASCKWQGSLDAVMPHLMHQHKSITTLQGEDIVFLATDINLPGAVDWVMMQSCFGFHFMLVLEKQEKYDGHQQFFAIVQLIGTRKQAENFAYRLELNGHRRRLTWEATPRSIHEGIATAIMNSDCLVFDTSIAQLFAENGNLGINVTISMC
B2: endogenous SIAH2 (protein, UniProt O43255 1-324)
chain: MSRPSSTGPSANKPCSKQPPPQPQHTPSPAAPPAAATISAAGPGSSAVPAAAAVISGPGGGGGAGPVSPQHHELTSLFECPVCFDYVLPPILQCQAGHLVCNQCRQKLSCCPTCRGALTPSIRNLAMEKVASAVLFPCKYATTGCSLTLHHTEKPEHEDICEYRPYSCPCPGASCKWQGSLEAVMSHLMHAHKSITTLQGEDIVFLATDINLPGAVDWVMMQSCFGHHFMLVLEKQEKYEGHQQFFAIVLLIGTRKQAENFAYRLELNGNRRRLTWEATPRSIHDGVAAAIMNSDCLVFDTAIAHLFADNGNLGINVTISTCCP
B3: SIAH2 (protein, UniProt O43255 1-324)
chain: B2 chain

How the values were obtained:
[1] = target: C-terminal region of CtIP (aa 500–897) (human) (UniProt Q99708); assay: two-hybrid; yeast two-hybrid screen for proteins that interact with the C-terminal region of CtIP (aa 500–897)
[2] = target: T1, GST-CtIP (aa 700–799) (human) (UniProt Q99708); assay: pull-down; bacterially expressed GST fusions immobilized on Glutathione Sepharose 4B beads, incubated with HeLa lysates (TEN100 buffer) 3 h at 4°C, washed with NTEN buffer (300 mM NaCl, 0.5% NP-40), immunoblot; only the target purified
T1 sequence: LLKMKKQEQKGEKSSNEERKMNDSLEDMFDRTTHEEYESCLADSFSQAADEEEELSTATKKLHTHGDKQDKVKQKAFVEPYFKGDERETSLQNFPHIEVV

[3] = target: endogenous CtIP (human (endogenous in HeLa)) (UniProt Q99708); assay: co-IP; endogenous proteins in HeLa lysates, untreated, 30 min after IR or 3 h after HU; immunoprecipitation of either partner, immunoblot

Binder	binding [1]	binding [2]	binding [3]
B1	binds		
B2		binds	binds
B3	binds		
